According to the supplement of paper PMC5949888:
Most values lie at the floor of the assay. Slopes are relative: functional sequences can read slightly below zero.

test system: Saccharomyces cerevisiae PS128 hsf1 delta, HSF1(1-493) fusion; assay: growth estimate (transactivation domain function in HSF1 fusion, heat-shock survival) (a.u. (slope of normalised read count over time)); higher = stronger growth at 37°C, i.e. more transactivation activity; conditions: library: random library
Procedure: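 Random 60-nt DNA library encoding peptides of up to 20 aa, fused to the C-terminus of yeast HSF1 residues 1-493 (C-terminal TAD deleted) and expressed from the native HSF1 promoter on a CEN plasmid in hsf1-deleted S. cerevisiae PS128. Cells were selected at 37°C on -trp 5-FOA plates for 0, 2, 4, 6 and 8 days and amplicons were sequenced. Growth estimate is the slope of a robust linear fit of total-sum-normalised read counts (normalised to the first time point) over time, using at least 2 replicates. Sequences are classed functional (TAD activity) above a threshold of -0.13, set from stop-codon control sequences.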

Substance | growth estimate
AIRARVFLPT | < -0.25
AIRLGNSCGNGL | < -0.25
AIRLRRQAVDSVTAPVTE | < -0.25
AIS | < -0.25
AISETDGHNVRLQFSPQLRT | -0.245
AISHAL | < -0.25
AISSLPREVEV | < -0.25
AISYEVVWTKGPRHHWRAFR | < -0.25
AITHCCQRKPIMGAFIRRRC | < -0.25
AITPDVCVAPYTPSIPIGVQ | < -0.25
AITVPVPACCVLKR | < -0.25
AIVDRLR | < -0.25
AIVMLGTFY | < -0.25
AIVMPFKMYQHGATLELLQG | < -0.25
AIVRLGRGLREKGPEANVMW | < -0.25
AKAGVAIGRCRC | < -0.25
AKCLGASTIVDDPKVNDKLI | < -0.25
AKFGLVDDSV | < -0.25
AKFISITIRRSKRHPPRGFR | < -0.25
AKGRKRRTQ | < -0.25
AKHVSPDRILGEYCTSSKRI | < -0.25
AKHYSVSSTRNGEAESEDEP | < -0.25
AKIFREAEGSCSRLGTMVWT | < -0.25
AKLAYRTNVKGYLSGIIAAK | < -0.25

Exported as tab-separated lines: part of the list above.
Substance	growth estimate
AISETDGHNVRLQFSPQLRT	-0.245
AKGRKRRTQ	< -0.25

Next results follow.

Substance | growth estimate
AKLSGIEPTQG | < -0.25
AKPKIYSMAS | < -0.25
AKR | < -0.25
AKRPQFWLVST | < -0.25
AKSLFLL | < -0.25
AKSTLYCRYVRVVYKIPPRA | < -0.25
AKSYGPVWF | < -0.25
AKTA | < -0.25
AKTLSYAFSLDLA | 0.393
AKVFQARVDGALSWFAMYWQ | < -0.25
AKVIVRLRSLGVHIGTGVRR | < -0.25
AKWYFPTVYGVTNMGKPIRL | -0.143
AKYWVSTQGGPQSKRNGLWM | < -0.25
ALAGAVISLLDTND | < -0.25
ALATMSISTLEYIVLPNGIS | < -0.25
ALCICSHWNVLSYGLSSYSN | < -0.25
ALDHSCSENTERHRGADLTL | < -0.25
ALDTRGSGRVMYWACVRSYG | < -0.25
ALELFCRLGTERFKRP | < -0.25
ALFN | < -0.25
ALG | < -0.25
ALGCVMRLKGRRRWFRDALG | < -0.25
ALGLYGEG | < -0.25
ALGTSASPVHAVF | < -0.25

Substance | growth estimate
ALGVRFYSTDVRTQRN | < -0.25
ALIE | < -0.25
ALIRARVGSLTSLLGSVHGS | < -0.25
ALKPGRLCSTRLGHSGPPLR | < -0.25
ALL | < -0.25
ALLATGYAYLSVRLKGASGS | < -0.25
ALLE | < -0.25
ALLFSQMFSSLTVSRTTRII | < -0.25
ALLGSRVIGDFNSGHW | < -0.25
ALLQGATATDGGHPA | < -0.25
ALLSECG | < -0.25
ALM | < -0.25
ALNESFHFTIPLGIFHILSH | < -0.25
ALPGQTDVVTARLAGSGDFL | < -0.25
ALPSGVTAILLCSNLRSLVC | < -0.25
ALQCLARGAGVSMRFPSRAS | < -0.25
ALQGSSGSMCGSQSKCVRGR | < -0.25
ALRCFCPVFASNAGKSNSFR | < -0.25
ALRDVKTSESSNVSNGLNGV | < -0.25
ALRFRAPETGSALSIQTAMY | < -0.25
ALRVTKAWPFGKDWPYITIV | < -0.25
ALRWQLQMWADFTWPGLNKA | < -0.25
ALSLNCPL | < -0.25
ALSR | < -0.25

In another format: entries from further up.
AISSLPREVEV
  growth estimate = < -0.25
AKGRKRRTQ
  growth estimate = < -0.25
AKWYFPTVYGVTNMGKPIRL
  growth estimate = -0.143
ALLATGYAYLSVRLKGASGS
  growth estimate = < -0.25

(next part)

Substance | growth estimate
ALSSAASCVLNSIVDYLCPT | < -0.25
ALTEDSRVTRV | < -0.25
ALTSSAESHRLISLSTSDLR | < -0.25
ALTTRVER | < -0.25
ALVGEGLDTSHCPRMVTSKG | < -0.25
ALVVVGQVLILGNTAHRAAG | < -0.25
ALY | < -0.25
ALYKRSTSNGL | < -0.25
ALYR | < -0.25
ALYRSG | < -0.25
ALYTHSGRTRRWRGRCECRM | -0.219
AMC | < -0.25
AMDMNLGLPDAQDRGRITCD | -0.246
AMITRMSRNWHPRVTAPRIS | < -0.25
AMMIDCCIADDHSGCKH | < -0.25
AMMTEPWTAGGGPLPAAR | < -0.25
AMPSQYRSARRSTTKFSDRS | < -0.25
AMYNPLCAITTESNSGRGPP | < -0.25
ANDFALNYRVPGRVVCQPGI | < -0.25
ANDGLCVQYSLRTQPRFSIG | < -0.25
ANEIYTASRFCVPSADLHGS | < -0.25
ANEPKRRWAGFPGLHLSRGC | < -0.253
ANGISFVLARQVFNEVQQWW | -0.246
ANLEVAPPLEAHGISANSYS | < -0.25

Substance | growth estimate
ANLHARVNATVRRGRTGHHL | < -0.25
ANPGSGCTEHRSRRQFRVLT | < -0.25
ANS | < -0.25
ANSTPGVADYYGPLRTGCEV | < -0.25
ANTWPGFHGRPCRERCYSRC | < -0.25
ANVFRAGLGSRRSGF | < -0.25
ANVPSGDRL | < -0.25
ANWACTRRTGELSWVGHGGL | < -0.25
APARKGLQGVQKKLRRRK | < -0.25
APDSGVGLTTVRATAGGSFR | < -0.25
APEDDKV | < -0.25
APERASKMDRAGARGCLRER | < -0.25
APFIN | < -0.25
APIFDYSGRFQCAICTQQCE | < -0.25
APIGLRNLRQLCQCRINAAT | < -0.25
APKVN | < -0.25
APLFVVFDWNVGDMDCDEIR | -0.127
APLSVYVVVCYAAGRDTQHS | < -0.25
APPHLPSRIVSRYLQA | < -0.25
APQSANGVGHCPVPVVSNPR | < -0.25
APQWET | < -0.25
APR | < -0.25
APRCRSSQTCRSDSERVGRC | < -0.25
APRKPAQVDLMGDSFFTGHR | < -0.25

Substance | growth estimate
APRRKKRIYGPGDIDVPVPE | < -0.25
APSERTAGQWEPWTRLRREG | < -0.25
APSFRHFCGETEKLSGIAVA | < -0.25
APTMDLIVCTSQTKPFTVAV | < -0.25
APTRNTAVSPFFCGVEYLVN | < -0.25
APTRTAGKFRCGYWG | < -0.25
APVLTWGVSERYHGLRCAHI | < -0.25
APVQQGLRVCFRLILCAEAI | < -0.25
AQDFI | < -0.25
AQDYRGKWRVE | < -0.25
AQELIRSYRTS | < -0.25
AQEQDYNKFEFPWYHTIGS | 0.0226
AQGQPVKQPRCIRGPDGRCA | < -0.25
AQIEEIVEMARG | < -0.25
AQLFRLSTISGWQGDSSRLY | < -0.25
AQLKCNGVRHRSKYPAAIE | < -0.25
AQLTSVAGEYYSTSGHHCER | < -0.25
AQMLSEGWC | -0.229
AQPPNHEGGVCLATYSASAG | < -0.25
AQQARSRMFMSEYTTLPAQQ | < -0.25
AQRELAQELLGRRNLLTLFD | < -0.25
AQREVTNPASCGYS | < -0.25
